Measurements published in publication PMC5741760.

By UniProt entry, the sequences of proteins in these tests, tags left out. Where a name states a change or a piece, a line headed by the entry shows the natural chain unless it says otherwise.
UniProt Q60974: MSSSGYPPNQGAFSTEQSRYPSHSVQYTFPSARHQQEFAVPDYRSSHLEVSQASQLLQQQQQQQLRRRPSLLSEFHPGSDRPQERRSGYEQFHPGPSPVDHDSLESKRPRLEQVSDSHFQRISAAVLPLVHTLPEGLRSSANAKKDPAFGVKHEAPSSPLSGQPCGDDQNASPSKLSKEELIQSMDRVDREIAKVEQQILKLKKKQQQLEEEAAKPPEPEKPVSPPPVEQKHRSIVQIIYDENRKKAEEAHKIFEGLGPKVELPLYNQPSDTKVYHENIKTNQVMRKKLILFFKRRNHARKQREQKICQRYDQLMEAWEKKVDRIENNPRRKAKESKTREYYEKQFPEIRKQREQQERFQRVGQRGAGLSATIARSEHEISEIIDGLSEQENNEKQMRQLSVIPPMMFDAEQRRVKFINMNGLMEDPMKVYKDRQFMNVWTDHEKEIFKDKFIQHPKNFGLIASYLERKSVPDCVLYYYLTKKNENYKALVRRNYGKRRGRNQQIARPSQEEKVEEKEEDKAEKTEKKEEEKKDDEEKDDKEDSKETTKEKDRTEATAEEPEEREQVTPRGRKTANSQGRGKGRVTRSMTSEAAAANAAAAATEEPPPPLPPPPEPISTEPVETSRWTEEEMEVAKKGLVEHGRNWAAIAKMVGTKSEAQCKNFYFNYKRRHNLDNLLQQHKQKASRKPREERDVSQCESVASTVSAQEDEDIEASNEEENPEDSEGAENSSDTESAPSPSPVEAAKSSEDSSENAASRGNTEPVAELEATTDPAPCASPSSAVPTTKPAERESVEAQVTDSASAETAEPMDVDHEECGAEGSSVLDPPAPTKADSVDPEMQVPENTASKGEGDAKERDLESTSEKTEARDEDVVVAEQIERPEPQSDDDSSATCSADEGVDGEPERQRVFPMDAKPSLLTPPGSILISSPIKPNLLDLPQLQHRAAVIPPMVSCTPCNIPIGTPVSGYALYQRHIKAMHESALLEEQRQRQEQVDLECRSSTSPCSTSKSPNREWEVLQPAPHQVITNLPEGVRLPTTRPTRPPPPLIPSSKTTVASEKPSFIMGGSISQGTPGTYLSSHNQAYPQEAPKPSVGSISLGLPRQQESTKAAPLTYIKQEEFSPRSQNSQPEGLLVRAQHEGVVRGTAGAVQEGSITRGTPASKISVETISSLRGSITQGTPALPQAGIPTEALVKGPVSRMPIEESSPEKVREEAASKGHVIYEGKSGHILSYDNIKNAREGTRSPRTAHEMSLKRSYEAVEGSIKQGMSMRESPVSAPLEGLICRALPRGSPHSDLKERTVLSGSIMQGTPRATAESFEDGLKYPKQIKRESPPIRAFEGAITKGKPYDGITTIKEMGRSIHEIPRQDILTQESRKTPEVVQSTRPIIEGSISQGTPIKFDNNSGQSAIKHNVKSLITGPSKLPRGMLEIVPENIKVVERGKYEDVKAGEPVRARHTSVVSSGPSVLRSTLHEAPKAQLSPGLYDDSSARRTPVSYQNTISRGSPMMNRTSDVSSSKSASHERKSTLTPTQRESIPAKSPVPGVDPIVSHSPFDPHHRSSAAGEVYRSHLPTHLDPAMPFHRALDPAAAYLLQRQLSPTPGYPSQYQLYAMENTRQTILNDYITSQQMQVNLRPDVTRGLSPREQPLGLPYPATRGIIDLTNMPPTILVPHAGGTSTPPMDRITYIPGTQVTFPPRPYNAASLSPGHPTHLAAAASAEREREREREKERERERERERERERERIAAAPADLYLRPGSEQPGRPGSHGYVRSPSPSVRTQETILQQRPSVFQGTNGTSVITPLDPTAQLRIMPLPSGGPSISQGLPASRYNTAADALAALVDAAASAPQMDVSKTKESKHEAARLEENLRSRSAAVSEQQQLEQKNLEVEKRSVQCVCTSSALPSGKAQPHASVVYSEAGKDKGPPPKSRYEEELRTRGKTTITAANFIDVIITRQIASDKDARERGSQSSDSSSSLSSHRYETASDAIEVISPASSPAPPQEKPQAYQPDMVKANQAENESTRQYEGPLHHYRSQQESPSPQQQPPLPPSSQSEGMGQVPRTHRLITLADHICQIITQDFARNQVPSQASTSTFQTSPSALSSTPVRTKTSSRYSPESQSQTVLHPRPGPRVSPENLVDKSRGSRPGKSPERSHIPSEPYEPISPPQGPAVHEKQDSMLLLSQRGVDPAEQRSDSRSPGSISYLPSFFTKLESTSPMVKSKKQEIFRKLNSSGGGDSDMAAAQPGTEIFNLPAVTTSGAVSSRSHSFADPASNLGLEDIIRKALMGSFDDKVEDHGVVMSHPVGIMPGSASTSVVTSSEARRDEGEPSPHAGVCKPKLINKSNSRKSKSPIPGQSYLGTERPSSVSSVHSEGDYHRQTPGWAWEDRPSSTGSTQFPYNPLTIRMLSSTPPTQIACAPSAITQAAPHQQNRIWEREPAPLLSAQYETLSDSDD

Biological target: T1, thyroid hormone receptor α1 (TRα1) (mouse (endogenous in bone marrow)) (UniProt P63058)
T1 sequence: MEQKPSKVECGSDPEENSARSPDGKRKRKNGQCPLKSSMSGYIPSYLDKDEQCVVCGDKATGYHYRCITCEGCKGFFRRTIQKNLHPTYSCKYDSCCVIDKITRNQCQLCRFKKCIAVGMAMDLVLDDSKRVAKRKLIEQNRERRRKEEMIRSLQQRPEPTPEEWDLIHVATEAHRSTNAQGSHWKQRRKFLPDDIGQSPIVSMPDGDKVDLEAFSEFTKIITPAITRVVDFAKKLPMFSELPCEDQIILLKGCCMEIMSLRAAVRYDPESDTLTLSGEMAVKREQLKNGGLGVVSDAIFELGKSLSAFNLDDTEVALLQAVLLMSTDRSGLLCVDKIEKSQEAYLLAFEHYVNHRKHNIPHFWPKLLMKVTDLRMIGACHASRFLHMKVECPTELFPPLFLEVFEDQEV
Assay: chromatin immunoprecipitation (ChIP); bone marrow cells of WT and mutant mice fixed in 1% formaldehyde, sheared, immunoprecipitated overnight at 4 °C with anti-NCOR1 (ab24552) or anti-HDAC3 antibody or IgG; qPCR of the TRE2 fragment upstream of Gata1; percentage of the input

NCOR1ΔID (product of the mutant Ncor1 ΔID allele) (from UniProt Q60974)
binding: no binding

Results are given in words; binding and its absence hold for the method and conditions named.
